Assay results published in PMC4090178, “Structural and Biochemical Characterization of Human PR70 in Isolation and in Complex with the Scaffolding Subunit of Protein Phosphatase 2A” (PLoS ONE, 2014).
Results are given in words; binding and its absence hold for the method and conditions named.

Protein sequences, listed by entry. Tags and fused reporters are not part of them.
UniProt P30153: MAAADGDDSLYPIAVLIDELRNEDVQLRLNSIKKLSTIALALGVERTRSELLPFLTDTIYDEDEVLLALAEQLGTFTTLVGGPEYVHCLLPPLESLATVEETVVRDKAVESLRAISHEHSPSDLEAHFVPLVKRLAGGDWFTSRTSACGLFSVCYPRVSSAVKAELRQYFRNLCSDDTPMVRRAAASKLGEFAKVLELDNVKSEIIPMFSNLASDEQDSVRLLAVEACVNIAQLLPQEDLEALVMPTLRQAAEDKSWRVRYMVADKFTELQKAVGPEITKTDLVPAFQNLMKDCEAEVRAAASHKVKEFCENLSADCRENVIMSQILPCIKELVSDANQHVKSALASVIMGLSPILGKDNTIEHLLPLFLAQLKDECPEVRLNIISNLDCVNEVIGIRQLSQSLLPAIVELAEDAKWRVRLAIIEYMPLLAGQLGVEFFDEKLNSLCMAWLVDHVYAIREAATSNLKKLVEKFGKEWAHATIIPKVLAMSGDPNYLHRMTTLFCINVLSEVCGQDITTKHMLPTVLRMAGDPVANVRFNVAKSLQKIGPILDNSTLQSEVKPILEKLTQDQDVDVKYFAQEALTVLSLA

Key:
PR72 (92–449) = molecular target: T1, PR72 (92–449) (UniProt Q06190); assay: ITC; B''-constructs at 20–40 µM in the cell titrated with 200–300 µM Aα or Aβ constructs; 15°C; 20 mM Tris pH 7.5, 200 mM NaCl, 2 mM CaCl2; 1:1 binding model; both purified
T1 sequence: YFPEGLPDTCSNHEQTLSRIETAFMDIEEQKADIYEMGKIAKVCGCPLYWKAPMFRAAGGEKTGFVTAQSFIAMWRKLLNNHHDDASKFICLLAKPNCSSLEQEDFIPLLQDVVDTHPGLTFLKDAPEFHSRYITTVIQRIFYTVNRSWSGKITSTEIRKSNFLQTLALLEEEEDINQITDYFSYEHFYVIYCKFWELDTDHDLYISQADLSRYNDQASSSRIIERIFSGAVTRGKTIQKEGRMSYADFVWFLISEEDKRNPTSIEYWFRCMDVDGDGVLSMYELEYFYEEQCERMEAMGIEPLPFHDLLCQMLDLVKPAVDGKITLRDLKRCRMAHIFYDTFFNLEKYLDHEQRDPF

PR70 (485–575) (human) = molecular target: T2, PR70 (485–575) (human) (UniProt Q9Y5P8); assay: as above
T2 sequence: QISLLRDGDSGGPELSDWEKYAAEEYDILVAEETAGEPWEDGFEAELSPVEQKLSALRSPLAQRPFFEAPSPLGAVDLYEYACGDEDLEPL

“A α (HEAT1–15) (from UniProt P30153 1-589)” was tested, and the binding (PR72 (92–449)) was “no binding” and the binding (PR70 (485–575) (human)) was “no binding”.
